Consider two molecules from PMC12858073.

These are yes or no findings as the source states them, for the method shown. In cells and extracts the contact can be indirect. Some binding calls cover weakened binding; strength is not graded here.

For this test, the target named is T1, THOC5 (mouse (endogenous in C2C12)) (UniProt Q8BKT7).
T1 sequence: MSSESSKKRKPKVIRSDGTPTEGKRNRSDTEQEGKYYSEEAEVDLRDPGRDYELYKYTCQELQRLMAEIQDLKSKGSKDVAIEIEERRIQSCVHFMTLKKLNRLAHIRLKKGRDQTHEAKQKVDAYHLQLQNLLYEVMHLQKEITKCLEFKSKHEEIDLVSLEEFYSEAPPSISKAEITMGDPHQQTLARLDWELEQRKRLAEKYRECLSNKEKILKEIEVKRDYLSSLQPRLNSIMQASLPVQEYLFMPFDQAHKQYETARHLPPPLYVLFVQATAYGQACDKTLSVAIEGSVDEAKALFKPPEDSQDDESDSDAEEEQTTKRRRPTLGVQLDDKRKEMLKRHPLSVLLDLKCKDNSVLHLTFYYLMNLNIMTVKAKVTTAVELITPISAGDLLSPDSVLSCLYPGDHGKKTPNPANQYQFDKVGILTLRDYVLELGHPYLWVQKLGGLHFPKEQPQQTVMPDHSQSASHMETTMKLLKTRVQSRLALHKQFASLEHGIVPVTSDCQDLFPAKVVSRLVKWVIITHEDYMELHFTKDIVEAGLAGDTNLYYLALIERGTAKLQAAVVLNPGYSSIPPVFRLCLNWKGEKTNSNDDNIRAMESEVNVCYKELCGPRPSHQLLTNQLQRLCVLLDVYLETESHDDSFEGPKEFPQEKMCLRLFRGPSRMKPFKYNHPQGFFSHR
Nature of the test: co-IP; C2C12 myotubes crosslinked with 2% formaldehyde 10 min; lysate in IP buffer (50 mM Tris-HCl pH 7.4, 150 mM NaCl, 0.5% Igepal); precipitation with anti-THOC5 antibody on protein-A beads; immunoblot with anti-BirA to detect PABPN1-TurboID. For orientation: A western blot detects proteins with antibodies after separation by electrophoresis.

B1: Ala17 PABPN1-TurboID (protein, UniProt Q8CCS6 1-302)
chain: MAAAAAAAAAAAAAAAAAGAAGGRGSGPGRRRHLVPGAGGEAGEGDPGGAGDYGNGLESEELEPGELLPEPEPEEEPPRPRAPPGAPGPGPGSGAPGSQEEEEEPGLVEADPGDGAIEDPELEAIKARVREMEEEAEKLKELQNEVEKQMNMSPPPGNAGPVIMSLEEKMEADARSIYVGNVDYGATAEELEAHFHGCGSVNRVTILCDKFSGHPKGFAYIEFSDKESVRTSLALDESLFRGRQIKVIPKRTNRPGISTTDRGFPRSRYRARTTNYNSSRSRFYSGFNSRPRGRIYRGRARATSWYSPY
Consider B1, for which the binding entry is recorded as “binds”.

B2: Ala10 PABPN1-TurboID (protein, UniProt Q8CCS6 1-302)
chain: MAAAAAAAAAAGAAGGRGSGPGRRRHLVPGAGGEAGEGDPGGAGDYGNGLESEELEPGELLPEPEPEEEPPRPRAPPGAPGPGPGSGAPGSQEEEEEPGLVEADPGDGAIEDPELEAIKARVREMEEEAEKLKELQNEVEKQMNMSPPPGNAGPVIMSLEEKMEADARSIYVGNVDYGATAEELEAHFHGCGSVNRVTILCDKFSGHPKGFAYIEFSDKESVRTSLALDESLFRGRQIKVIPKRTNRPGISTTDRGFPRSRYRARTTNYNSSRSRFYSGFNSRPRGRIYRGRARATSWYSPY
For B2, the binding entry is recorded as “binds”.
